Results as given in patent US20260103513A1.
Results are given in words; binding and its absence hold for the method and conditions named. Some results given as binding are weak or reduced against the parent protein; the word gives no strength.

Chains of the proteins cited; added tags and fusions are not shown. Residues count along the entry.
UniProt Q495A1, residues 22-141: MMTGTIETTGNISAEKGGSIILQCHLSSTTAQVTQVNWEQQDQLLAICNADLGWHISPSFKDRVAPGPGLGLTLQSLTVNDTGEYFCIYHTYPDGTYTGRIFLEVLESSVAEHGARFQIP

Tests used:
[1] = biological target: Cynomolgus monkey TIGIT-His tag fusion protein (cynomolgus monkey); assay: ELISA, TIGIT-His coated; comparator, weaker than H401LV2
[2] = biological target: Human TIGIT-His tag fusion protein (human) (UniProt Q495A1); assay: as above
[3] = biological target: Human TIGIT-His tag fusion protein (human) (UniProt Q495A1); assay: ELISA, human TIGIT-His coated, HRP anti-human IgG, OD450
[4] = biological target: Cynomolgus monkey TIGIT-His tag fusion protein (cynomolgus monkey); assay: ELISA, cynomolgus TIGIT-His coated, HRP anti-human IgG, OD450
[5] = biological target: Human TIGIT-His tag fusion protein (human) (UniProt Q495A1); assay: competition ELISA on coated TIGIT-His; blocked ligand CD155-Biotin; the sheet does not name the species of the TIGIT-His

Measured: binding

B1: Hu4A501 (antibody, V domains shown)
VH: QVQLQESGPGLVKPSQTLSLTCTVTGSSITSDYAWNWIRQFPGKKLEWMGYITYSGRTTYNPSLKSRITISRDTSKNQFSLKLSSVTAADTATYYCARWGLLRRYFDYWGQGTLLTVSS
VL: DIVMTQSPSSMSTSVGDRVTITCRASQDVFTAVAWYQQKPGKSPKLLIYSASFRYTGVPDRFSGSGSGTDFTFTISSVQAEDFATYYCQQHYSTPLTFGAGTKLELKR
binds: all assays above
